## Results from one PubChem assay

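Luminescence from an EWS-FLI1 target-promoter (NR0B1) reporter, set against a CMV-promoter reporter, two days after silencing single genes in TC32 Ewing sarcoma cells. Each siRNA was applied at 20 nM. A z-score of the log NR0B1-over-CMV signal, less the median of siRNAs with the same seed; more negative means a stronger specific loss of the NR0B1 reporter.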

This is part of the screen; most of the strongest results are not listed here. Sequences are the guide (antisense) strand, without overhang.

siRNA | target gene | seed-corrected z-score
UUUUGAACAGGGACUCCGU | IFFO1 | 0.5264
UCAGCGUUGAGUUCUGUGC | COX4I2 | 0.2349
UUGUCUAUACAUAGCAUUU | MTL5 | -1.135
UAGGGCUCAAGUUGUCAGU | SMIM5 | -0.1063
UGAAGUCUGCGUAUAGUCC | RMDN3 | 0.5475
UUCGAGAACAGCCUCACUG | LIMCH1 | -0.5306
UAAUGUUACAGAAGCCUGC | RPP38 | 0.2648
UGAUCUUCAUGGUACAACC | WDFY4 | 0.05799
UCCGAAGCUGAGGUCAACC | ATP5D | -0.6655
UUCUAUGUACGGAAUAUUG | MRAS | -0.1895
UUUCGGAAUGCAACUUAGC | EEA1 | 0.8854
UCUGAGUUUGUGCUUUCCC | HOXA4 | -0.5494
UAUGUUAGCGGGAAAAUCA | MAP6D1 | -0.1928
UCUGUUAAUCUUCACUUGG | CNTNAP3B | -0.9984
AAUGGAGCCGGUCUCGUUG | PAX1 | 0.2153
UUUGUAACAUGUGAAGUAC | CEACAM16 | -0.3501
UGUUAAACCACAUCUCUUC | PPP4R3A | -0.04005
UUCAUGUCACAGUAUACUC | FGB | -1.085
AUUGGUUGAAGCAUCUUUG | IGLV5-39 | -1.733
UAACCAGAAGCUUAUCAUG | VHLL | 0.0877
UUAGAAUUCCUGACUUCCU | SEBOX | 0.8468
AUCCGUUUGAGUGUCCUCG | TAF7L | 0.1808
UUCGGUAUAAAGCAAUCAC | USP28 | -0.08104
ACUGGUCUCAGAUUGAAGC | ZNF79 | -0.04814
UUUAUUAUAAGGCUCCAAG | TTC30A | -0.652
AAUAAUCUCAUUAGAGCUG | GEMIN6 | 1.023
UACACGAGGAUAUCUGUGC | ARL11 | 0.09044
UAAUGGUCAGGCGAAAUGC | SENP1 | -0.3573
UUUGAUCUAACAUCAGGUC | TNP1 | -0.3834
UAGUGUCACACGAACAGGG | SPRED1 | 0.3033
AAAGUAAUCCAAGGAAAGC | ZC4H2 | 0.7736
UAUCAUAUCGCAGAGACCG | SDHA | 0.02822
UAGGGUACCUAGGAGAAUC | PROX2 | -0.04029
UUCAUUACCUGGGUGUUGG | OR51B6 | 0.4965
UCCCGUACCAGAAUCUUCC | ECD | -0.1729
AAACAAAGACGAUAUCAGC | DNAJB1 | 1.053
UGAGUGAAAUGCAAUAGCC | SESTD1 | 0.0597
UGAUUCACCAGCCUUGUGC | FAM179B | 0.8859
UACCCGAACCGUGUAAUGG | CAPN7 | -1.001
AAGCCUCCCAUUCUGAAUC | TMX4 | -0.5299
AGUGUAAUUAGUCUUGGGC | OR10K1 | 0.1168
UUAGCAUCAAUGUCCAGGC | ERP29 | 0.1832
UAUCCAUUUUGAGAAAUAG | PRSS38 | 0.3451
UUUAGGACCACCUCAUUGA | TOR3A | 0.5171
UGAGUCGCCUCCACGUUCU | ABHD16B | -0.5075
ACAUUUGUCACCACUAGCC | SRD5A3 | 0.03233
UACCUGUCAUCUUAUGUUC | TCEAL6 | -0.5932
UUUGGUGUUCCAGUGAACC | CA2 | 0.8285
UUGGUAUCUAUUGUCCUGC | FAM98A | 0.0567
ACACCUUUCACAGUCUGUC | MPDU1 | 1.018
UUCCUGAUUAUUCUUCACA | PGP | -0.05952
UUAUAUUCCUCUGAUGGAC | CCNB1IP1 | -1.8
UUCACCAUCACUUCGCGCU | C9orf24 | -1.354
UAGGAGAGCAGAAUUAACA | OR10G2 | 0.04698
AUAAUAGCUCAGGAUGUCU | TTYH1 | -1.226
CAUCUUCUUGGAUGGGUCG | GOLGA6L10 | 0.3652
UUUUGCACAGAUCUGGGAG | ATP5E | 0.8434
UUUCGACUUAGAGGUAUGC | FAM227B | 0.02052
UACGGCUCGGUCAAAGUUC | FGD3 | -0.2677
UACGGAGUAUUUUCAUUGC | STK38 | -0.253
AACUUCUCCACGAUGUUGG | TRIM8 | 1.188
UCUGGAGAAAUUGACGAUC | TAS2R20 | 0.3966
UAUGGUCUCCCAAGGAUUC | FAM129C | -1.038
ACAUUGGUCAGAACGAAGG | DENND2D | -0.6675
UUAGAAUUCUCUGUUAACC | IFT46 | -0.3771
UUUCAUUCCCAUGAAGAUC | ZBTB9 | -0.2482
UGAGUGUUCAGGGCAGGGA | LIME1 | -0.5179
UGGCUGAUCAUGUCUGCAG | CDC42EP1 | 0.1174
AGCUUUAUUCGAGAUGAUG | ZNF767P | -0.06135
AAUGUGGAAAGCAUCGGGC | SLC5A9 | 0.3459
UCCUCUGUGAUGAAUCUCC | SUSD5 | -0.119
AAUGGUAUGAUUGUCUCUG | LOC283585 | 1.96
UAUUCUAGCCCACAGAGUC | INSL5 | -0.3181

5 of the entries, repeated:

siRNA	target gene	seed-corrected z-score
AGCUUUAUUCGAGAUGAUG	ZNF767P	-0.06135
UACCUGUCAUCUUAUGUUC	TCEAL6	-0.5932
UUUCGGAAUGCAACUUAGC	EEA1	0.8854
UAUUCUAGCCCACAGAGUC	INSL5	-0.3181
AAUGGAGCCGGUCUCGUUG	PAX1	0.2153

From PubChem BioAssay record AID1159506 (NCATS, 2015).